Experimental findings from the supplement of paper PMC10849652 are described below.

Sequences of proteins named here, by UniProt entry; tags and fusion partners are left off. A change or cut given only in a name is not applied to a line headed by its entry.
UniProt Q6ZNJ1: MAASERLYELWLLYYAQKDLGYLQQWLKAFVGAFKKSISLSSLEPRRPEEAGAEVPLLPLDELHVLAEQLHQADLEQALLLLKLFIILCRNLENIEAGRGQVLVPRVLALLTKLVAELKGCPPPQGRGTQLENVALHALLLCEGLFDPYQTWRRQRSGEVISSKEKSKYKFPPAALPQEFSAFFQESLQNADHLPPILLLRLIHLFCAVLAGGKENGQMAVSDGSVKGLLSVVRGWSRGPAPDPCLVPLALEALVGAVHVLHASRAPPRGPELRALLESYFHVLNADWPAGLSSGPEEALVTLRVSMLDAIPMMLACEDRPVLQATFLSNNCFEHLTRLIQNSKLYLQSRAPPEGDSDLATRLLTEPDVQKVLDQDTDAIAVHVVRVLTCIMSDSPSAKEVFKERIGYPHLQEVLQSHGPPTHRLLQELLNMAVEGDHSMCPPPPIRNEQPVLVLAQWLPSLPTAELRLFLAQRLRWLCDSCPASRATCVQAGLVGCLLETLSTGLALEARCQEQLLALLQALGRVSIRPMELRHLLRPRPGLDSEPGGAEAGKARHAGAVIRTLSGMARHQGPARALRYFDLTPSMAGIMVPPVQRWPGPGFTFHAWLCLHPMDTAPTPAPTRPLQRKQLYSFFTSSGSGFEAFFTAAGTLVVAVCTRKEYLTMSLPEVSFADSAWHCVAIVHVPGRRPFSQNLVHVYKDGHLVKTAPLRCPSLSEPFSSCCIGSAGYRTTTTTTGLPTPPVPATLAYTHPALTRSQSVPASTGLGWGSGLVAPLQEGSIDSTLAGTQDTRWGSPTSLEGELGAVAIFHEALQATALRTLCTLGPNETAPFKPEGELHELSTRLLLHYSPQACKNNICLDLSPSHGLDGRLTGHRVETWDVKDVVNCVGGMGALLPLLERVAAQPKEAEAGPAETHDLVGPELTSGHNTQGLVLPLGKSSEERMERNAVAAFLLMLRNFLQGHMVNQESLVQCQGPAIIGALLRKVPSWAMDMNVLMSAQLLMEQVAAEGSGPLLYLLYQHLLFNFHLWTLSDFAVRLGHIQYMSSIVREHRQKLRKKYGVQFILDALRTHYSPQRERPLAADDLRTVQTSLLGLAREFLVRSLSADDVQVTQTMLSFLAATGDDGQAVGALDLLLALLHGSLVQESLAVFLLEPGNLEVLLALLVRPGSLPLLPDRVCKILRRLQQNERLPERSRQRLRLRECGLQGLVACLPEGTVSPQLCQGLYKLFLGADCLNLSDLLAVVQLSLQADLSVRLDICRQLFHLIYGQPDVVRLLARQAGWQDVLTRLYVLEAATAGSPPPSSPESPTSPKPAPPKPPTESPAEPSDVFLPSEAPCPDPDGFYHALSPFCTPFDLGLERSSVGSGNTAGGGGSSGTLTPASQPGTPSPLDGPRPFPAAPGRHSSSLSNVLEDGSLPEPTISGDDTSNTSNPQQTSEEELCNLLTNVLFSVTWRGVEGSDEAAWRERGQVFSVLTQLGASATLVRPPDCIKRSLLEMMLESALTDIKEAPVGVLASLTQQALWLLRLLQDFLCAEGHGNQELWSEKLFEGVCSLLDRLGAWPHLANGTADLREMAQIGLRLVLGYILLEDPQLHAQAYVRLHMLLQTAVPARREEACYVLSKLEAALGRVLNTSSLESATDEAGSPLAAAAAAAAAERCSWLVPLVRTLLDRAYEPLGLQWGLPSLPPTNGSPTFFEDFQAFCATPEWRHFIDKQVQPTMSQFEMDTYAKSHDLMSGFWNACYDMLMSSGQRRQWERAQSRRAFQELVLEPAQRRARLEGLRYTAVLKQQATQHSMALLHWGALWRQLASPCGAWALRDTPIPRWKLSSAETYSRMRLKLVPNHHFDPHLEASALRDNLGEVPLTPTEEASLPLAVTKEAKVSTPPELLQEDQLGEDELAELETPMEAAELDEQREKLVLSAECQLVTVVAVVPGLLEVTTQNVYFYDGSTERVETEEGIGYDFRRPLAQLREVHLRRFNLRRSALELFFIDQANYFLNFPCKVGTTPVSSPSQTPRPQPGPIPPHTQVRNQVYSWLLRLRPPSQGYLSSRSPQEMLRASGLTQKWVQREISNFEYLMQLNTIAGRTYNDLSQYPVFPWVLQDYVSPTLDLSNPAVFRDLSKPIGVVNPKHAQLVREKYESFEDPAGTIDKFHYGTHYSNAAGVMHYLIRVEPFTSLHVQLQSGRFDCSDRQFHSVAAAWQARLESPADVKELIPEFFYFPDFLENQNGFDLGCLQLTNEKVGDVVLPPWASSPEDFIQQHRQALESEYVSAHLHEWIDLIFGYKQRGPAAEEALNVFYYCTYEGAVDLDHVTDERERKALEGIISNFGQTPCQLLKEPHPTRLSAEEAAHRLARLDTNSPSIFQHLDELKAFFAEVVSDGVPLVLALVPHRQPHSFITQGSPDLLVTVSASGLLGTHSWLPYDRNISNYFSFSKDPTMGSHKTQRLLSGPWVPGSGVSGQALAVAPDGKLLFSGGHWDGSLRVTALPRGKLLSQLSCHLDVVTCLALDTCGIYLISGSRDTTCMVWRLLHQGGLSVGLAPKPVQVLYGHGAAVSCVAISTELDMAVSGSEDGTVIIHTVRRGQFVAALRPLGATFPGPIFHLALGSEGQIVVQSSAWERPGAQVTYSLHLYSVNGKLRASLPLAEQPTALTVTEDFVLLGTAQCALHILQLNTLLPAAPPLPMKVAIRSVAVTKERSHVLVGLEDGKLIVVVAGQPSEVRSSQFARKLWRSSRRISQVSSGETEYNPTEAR
UniProt Q9NV92: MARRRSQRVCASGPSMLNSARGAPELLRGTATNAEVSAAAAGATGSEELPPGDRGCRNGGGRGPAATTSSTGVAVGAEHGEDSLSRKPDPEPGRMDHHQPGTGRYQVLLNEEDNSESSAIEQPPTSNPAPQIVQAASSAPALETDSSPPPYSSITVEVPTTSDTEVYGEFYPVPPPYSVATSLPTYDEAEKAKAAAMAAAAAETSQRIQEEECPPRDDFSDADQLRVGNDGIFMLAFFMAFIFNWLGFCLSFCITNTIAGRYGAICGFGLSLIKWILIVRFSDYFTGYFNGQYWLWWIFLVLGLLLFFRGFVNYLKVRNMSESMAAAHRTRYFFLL
UniProt Q6ZVX7: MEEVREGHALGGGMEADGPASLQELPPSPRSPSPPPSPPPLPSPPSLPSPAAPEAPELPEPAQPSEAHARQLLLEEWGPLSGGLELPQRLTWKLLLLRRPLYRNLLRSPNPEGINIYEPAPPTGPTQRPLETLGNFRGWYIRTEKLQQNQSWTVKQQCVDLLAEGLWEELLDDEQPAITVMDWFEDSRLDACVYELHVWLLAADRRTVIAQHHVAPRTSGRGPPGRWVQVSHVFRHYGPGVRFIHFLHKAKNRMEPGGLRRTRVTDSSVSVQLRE
UniProt P52849: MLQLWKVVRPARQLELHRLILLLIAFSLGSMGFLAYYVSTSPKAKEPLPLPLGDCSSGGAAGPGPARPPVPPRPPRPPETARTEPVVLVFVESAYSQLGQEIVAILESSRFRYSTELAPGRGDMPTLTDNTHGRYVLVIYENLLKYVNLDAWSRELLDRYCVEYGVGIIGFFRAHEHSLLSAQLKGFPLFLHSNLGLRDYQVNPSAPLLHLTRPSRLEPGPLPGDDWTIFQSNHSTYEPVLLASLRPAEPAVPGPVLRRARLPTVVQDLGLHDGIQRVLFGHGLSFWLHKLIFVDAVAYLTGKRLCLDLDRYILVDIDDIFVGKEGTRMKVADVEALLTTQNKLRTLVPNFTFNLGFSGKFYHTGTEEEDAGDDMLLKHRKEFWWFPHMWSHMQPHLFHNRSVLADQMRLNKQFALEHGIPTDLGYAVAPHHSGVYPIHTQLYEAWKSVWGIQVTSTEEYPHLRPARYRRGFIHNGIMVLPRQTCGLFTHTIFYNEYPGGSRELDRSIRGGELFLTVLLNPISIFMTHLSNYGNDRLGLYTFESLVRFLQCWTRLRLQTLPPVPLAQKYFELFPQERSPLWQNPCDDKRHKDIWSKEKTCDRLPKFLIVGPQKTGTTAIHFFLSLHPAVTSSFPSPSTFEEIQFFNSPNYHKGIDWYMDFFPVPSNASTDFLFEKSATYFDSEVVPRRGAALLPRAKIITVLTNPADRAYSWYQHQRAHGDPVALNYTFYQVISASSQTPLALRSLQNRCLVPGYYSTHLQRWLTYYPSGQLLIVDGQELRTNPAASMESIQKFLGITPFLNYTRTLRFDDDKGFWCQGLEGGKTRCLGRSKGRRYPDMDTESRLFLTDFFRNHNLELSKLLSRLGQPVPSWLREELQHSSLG
UniProt Q9GZZ1: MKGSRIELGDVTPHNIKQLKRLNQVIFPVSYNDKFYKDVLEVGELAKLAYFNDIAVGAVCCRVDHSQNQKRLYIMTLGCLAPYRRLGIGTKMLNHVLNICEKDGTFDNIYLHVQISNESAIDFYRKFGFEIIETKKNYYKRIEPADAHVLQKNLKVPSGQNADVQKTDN
UniProt Q13772: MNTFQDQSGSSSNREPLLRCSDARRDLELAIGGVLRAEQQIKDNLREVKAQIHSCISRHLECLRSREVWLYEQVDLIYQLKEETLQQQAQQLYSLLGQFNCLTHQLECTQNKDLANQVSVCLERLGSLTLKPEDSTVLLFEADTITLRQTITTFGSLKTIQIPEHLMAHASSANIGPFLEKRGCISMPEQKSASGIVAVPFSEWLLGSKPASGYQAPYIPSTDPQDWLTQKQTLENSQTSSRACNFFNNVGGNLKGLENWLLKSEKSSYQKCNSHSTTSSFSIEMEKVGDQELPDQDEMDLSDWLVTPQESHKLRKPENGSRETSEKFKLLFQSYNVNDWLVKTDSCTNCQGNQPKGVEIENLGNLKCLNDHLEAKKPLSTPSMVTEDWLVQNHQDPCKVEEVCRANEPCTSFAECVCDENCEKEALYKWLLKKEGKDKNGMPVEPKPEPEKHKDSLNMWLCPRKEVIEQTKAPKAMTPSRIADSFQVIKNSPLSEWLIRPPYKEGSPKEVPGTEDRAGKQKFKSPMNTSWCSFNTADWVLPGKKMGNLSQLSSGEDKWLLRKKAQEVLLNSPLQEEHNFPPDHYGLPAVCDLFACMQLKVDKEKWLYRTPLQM
UniProt O43677, whole entry, looked up: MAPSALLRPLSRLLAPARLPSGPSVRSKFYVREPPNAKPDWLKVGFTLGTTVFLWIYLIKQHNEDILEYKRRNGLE
UniProt Q9UK23: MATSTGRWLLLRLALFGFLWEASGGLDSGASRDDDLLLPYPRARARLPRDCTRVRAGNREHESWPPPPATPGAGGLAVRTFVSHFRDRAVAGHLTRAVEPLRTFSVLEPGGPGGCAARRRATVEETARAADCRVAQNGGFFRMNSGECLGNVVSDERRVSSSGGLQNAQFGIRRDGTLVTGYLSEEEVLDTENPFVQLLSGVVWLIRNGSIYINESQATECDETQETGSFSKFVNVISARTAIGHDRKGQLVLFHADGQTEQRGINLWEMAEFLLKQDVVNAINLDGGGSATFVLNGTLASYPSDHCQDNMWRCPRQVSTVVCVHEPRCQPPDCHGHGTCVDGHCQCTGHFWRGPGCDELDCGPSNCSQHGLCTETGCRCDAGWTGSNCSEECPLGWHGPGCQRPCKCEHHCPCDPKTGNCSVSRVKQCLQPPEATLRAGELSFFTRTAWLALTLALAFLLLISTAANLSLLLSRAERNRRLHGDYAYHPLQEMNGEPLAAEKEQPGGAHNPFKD

Common to all, as to assay: log2 fold change, soluble protein after heating vs DMSO (PISA); higher = thermal stabilisation; K562 cells, 10 uM, 30 min; active = over 0.2 and 3.5 SD of the protein, either way, in both replicates (recomputed)
Compound in experiment [1]: CC1=C(SC2=C1C(=N[C@H](C3=NN=C(N32)C)CC(=O)N)C4=CC=C(C=C4)Cl)C
The procedure, abridged:
(§1)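 K562 cells (2×10^6 cells/mL) were treated with 10 μM compound for 30 min, and aliquots were heated for 3 min over 48°C-58°C. Pooled aliquots were extracted in PBS with 0.5% NP-40 at 4°C, and the supernatant after 21,000xg for 90 min was measured by TMTpro 16plex LC-MS/MS with channel sums equalised. Reported thermal stability, relative to control samples and from duplicates, is a log2 fold change.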

Compound in experiment [2]: c1ccc([C@@H]2C[C@H]2NC2CCNCC2)cc1
The procedure, abridged:
as §1

Compound in experiment [3]: Cc1sc2c(c1C)C(c1ccc(Cl)cc1)=N[C@@H](CC(=O)OC(C)(C)C)c1nnc(C)n1-2
The essentials: as §1

Compound in experiment [4]: C1=CC=C(C=C1)[C@H](COC2=CC3=C(C=C2)NC(=O)N3)NC(=O)C4=CC=CN(C4=O)CC5=CC(=C(C=C5)F)F
The essentials:
as §1

Compound in experiment [5]: CC1=C2C(=CC=C1)N=C(N(C2=O)C3=CC=CC=C3C)CN4C=NC5=C(N=CN=C54)N
The procedure, abridged:
as §1

The other results are listed elsewhere or left out.

Take NBEAL2 (UniProt Q6ZNJ1): the log2 fold change in experiment [1] was inactive: -0.073; in experiment [2] it was inactive: -0.099.

With NDFIP2 (UniProt Q9NV92), the log2 fold change in experiment [3] is inactive: 0.015.

As to NEB isoform 3 (UniProt P20929), the log2 fold change is inactive: 0.024 in experiment [4], inactive: -0.026 in experiment [1], inactive: 0.136 in experiment [5] and inactive: 0.274 in experiment [2].

As for NCCRP1 (UniProt Q6ZVX7), in experiment [5], the log2 fold change is inactive: -0.167.

As to NDST2 (UniProt P52849), the log2 fold change was inactive: 0.072 in experiment [4], inactive: -0.027 in experiment [5] and inactive: 0.032 in experiment [3].

NAA50 (UniProt Q9GZZ1): the log2 fold change in experiment [4] is inactive: 0.018; in experiment [1], inactive: 0.016; in experiment [5] it was inactive: 0; in experiment [3] it was inactive: -0.056; in experiment [2], inactive: -0.029.

As for NCOA4 isoform 4 (UniProt Q13772), the log2 fold change in experiment [1] was inactive: -0.088; in experiment [2], inactive: 0.127.

Consider NDUFC1 (UniProt O43677), for which the figures for the log2 fold change in experiment [1] and in experiment [2] were inactive: -0.006 and inactive: 0.035, respectively.

For the target NCOA6 (UniProt Q14686), the log2 fold change in experiment [4] was inactive: -0.051; in experiment [5] it was inactive: -0.142; in experiment [3] it was inactive: -0.15.

As for NAGPA (UniProt Q9UK23), the log2 fold change was inactive: 0.179 in experiment [4], inactive: -0.048 in experiment [1], inactive: -0.004 in experiment [3] and inactive: 0.061 in experiment [2].

NA, A0A1W2PSA9: the log2 fold change in experiment [1] was inactive: -0.046; in experiment [3] it was inactive: 0.006; in experiment [2], inactive: 0.104.
